This note sets out measurements from article PMC9023524.

Chains of the proteins cited; added tags and fusions are not shown.
UniProt Q70KF4: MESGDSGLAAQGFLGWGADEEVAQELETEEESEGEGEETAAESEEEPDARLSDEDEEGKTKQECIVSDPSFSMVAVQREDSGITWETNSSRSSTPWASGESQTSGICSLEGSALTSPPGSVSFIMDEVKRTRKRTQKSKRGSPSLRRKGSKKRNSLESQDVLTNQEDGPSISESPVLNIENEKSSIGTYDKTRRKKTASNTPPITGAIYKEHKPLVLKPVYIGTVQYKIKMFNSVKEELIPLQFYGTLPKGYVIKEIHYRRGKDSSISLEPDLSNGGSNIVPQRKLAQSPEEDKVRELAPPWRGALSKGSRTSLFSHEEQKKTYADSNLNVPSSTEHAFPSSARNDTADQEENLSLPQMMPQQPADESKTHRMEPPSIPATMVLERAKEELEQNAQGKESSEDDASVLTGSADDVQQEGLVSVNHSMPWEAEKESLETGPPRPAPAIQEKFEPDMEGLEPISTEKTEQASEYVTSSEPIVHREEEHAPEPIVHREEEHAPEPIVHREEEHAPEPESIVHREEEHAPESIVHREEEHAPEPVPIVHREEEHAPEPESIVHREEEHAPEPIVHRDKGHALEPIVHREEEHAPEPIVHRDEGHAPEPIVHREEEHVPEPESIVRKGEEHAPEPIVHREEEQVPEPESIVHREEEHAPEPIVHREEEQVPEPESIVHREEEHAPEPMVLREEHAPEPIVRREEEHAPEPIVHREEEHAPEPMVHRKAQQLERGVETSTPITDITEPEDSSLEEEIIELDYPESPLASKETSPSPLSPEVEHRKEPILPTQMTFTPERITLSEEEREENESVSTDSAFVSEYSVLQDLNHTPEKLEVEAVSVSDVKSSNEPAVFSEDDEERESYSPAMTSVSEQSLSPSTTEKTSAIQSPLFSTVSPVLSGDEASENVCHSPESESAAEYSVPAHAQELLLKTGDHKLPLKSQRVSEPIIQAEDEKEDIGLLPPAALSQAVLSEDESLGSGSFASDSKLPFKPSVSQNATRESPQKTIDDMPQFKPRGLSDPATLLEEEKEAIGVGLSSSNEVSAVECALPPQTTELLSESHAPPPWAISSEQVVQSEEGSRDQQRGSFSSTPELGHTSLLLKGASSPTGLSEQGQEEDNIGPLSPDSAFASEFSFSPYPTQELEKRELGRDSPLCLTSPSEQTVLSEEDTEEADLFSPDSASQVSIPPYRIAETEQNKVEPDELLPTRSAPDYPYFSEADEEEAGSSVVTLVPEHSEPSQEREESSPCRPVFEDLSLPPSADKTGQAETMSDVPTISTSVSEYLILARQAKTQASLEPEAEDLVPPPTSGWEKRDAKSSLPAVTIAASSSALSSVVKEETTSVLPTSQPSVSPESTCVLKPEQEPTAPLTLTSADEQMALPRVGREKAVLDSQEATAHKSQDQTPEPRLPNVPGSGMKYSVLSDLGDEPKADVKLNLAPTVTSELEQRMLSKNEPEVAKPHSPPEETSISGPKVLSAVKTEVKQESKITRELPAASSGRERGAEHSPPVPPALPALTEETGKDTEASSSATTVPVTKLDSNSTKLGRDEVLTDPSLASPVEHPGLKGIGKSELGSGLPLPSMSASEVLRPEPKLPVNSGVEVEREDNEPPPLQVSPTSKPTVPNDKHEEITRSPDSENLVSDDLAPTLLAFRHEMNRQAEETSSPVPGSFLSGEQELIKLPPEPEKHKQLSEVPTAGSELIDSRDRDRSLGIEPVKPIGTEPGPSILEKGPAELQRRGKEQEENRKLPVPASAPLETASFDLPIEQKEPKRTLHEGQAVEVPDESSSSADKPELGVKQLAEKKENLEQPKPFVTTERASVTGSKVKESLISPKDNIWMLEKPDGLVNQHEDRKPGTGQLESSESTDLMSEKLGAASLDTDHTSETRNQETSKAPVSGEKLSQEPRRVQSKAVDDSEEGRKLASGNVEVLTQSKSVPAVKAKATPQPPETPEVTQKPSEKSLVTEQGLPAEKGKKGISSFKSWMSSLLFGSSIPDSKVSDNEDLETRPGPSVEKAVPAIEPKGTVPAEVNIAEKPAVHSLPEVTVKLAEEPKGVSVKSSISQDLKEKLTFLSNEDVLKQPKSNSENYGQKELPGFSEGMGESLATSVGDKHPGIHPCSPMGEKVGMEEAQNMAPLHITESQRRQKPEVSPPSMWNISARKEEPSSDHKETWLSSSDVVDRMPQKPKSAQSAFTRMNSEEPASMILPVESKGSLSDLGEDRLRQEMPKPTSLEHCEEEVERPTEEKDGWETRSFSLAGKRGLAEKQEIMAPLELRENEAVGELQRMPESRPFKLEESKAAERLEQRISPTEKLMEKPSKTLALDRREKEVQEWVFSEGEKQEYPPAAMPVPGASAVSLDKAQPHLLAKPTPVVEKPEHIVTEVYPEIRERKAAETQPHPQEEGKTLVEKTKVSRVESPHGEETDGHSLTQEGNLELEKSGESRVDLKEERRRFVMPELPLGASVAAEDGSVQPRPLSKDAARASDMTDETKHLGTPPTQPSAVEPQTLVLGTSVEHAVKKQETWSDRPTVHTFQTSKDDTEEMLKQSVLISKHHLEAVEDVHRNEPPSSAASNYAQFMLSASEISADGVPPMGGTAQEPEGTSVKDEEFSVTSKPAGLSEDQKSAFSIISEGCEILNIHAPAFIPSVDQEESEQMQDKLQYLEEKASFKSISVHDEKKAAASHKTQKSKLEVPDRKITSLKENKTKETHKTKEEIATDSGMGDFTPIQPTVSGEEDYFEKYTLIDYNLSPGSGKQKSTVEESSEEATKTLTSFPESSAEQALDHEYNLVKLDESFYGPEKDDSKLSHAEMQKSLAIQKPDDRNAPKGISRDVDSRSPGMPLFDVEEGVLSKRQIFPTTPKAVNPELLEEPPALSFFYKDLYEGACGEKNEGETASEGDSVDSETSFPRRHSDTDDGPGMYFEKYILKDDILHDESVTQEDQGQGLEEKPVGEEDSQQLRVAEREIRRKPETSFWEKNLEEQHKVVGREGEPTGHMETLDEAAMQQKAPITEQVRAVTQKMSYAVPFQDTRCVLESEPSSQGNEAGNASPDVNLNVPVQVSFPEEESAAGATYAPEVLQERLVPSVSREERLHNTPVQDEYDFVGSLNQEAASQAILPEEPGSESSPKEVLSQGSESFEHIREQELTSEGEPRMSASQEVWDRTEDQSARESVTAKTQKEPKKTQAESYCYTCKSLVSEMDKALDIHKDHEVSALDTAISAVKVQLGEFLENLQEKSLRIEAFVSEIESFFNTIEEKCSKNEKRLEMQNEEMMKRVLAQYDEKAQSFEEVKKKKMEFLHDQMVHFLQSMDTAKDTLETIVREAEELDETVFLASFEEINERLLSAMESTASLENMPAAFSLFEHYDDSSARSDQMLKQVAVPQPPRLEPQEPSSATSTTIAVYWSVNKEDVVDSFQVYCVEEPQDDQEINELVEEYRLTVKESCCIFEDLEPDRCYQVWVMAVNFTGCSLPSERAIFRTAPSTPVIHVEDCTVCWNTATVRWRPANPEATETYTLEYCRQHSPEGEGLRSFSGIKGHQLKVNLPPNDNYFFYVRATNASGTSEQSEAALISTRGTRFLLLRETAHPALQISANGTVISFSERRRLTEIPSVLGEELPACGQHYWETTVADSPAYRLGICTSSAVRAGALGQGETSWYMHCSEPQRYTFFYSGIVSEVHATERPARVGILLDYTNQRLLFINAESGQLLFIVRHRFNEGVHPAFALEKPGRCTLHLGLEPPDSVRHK

Results are given in words; binding and its absence hold for the method and conditions named. In cells and extracts the contact can be indirect. Some binding calls cover weakened binding; strength is not graded here.

In this test the target is RYR2 (mouse (endogenous in mouse heart)) (UniProt E9Q401). Kind of test: proximity ligation; Duolink In Situ Red PLA (mouse/rabbit) with RYR2 and CMYA5 antibodies on 4% PFA-fixed, Triton X-100-permeabilised adult mouse cardiomyocytes; detects proteins closer than 40 nm.

With “CMYA5 (cardiomyopathy-associated protein 5) (from UniProt Q70KF4 1-3739)”, the binding entry is “binds”.
